# Laboratory results: patent US20170007709A1, “GLYCOAMINO ACID AND USE THEREOF” (AJINOMOTO CO., INC., priority 2014, published 2017)
# Some results were stated once for a whole list of compounds, not compound by compound.
# Experiment: Dissolution rate evaluation in water
# Format: physicochemical
# Experimental: Val, Ile, Leu or glycoamino acid corresponding thereto (Val-Glc, Ile-Glc, Leu-Glc) were each added to stirring water (25 ml, inside temperature 32° C.) in a hot-water bath at 35° C., and the dissolution rate was measured. As compared to Val, Ile and Leu, Val-Glc, Ile-Glc and Leu-Glc were dissolved 4-19 times faster in equal weight and 2-19 times faster in equimolar amount.
SMILES,"dissolved faster as compared to Val, Ile and Leu (in equal weight)","dissolved faster as compared to Val, Ile and Leu (in equimolar amount)"
"CC(C)[C@H](N)C(=O)N[C@@H]1O[C@H](CO)[C@@H](O)[C@H](O)[C@H]1O [Val-Glc, N-(L-valyl)-β-D-glucopyranosylamine]",4-19 times,2-19 times
"CC(C)C[C@H](N)C(=O)N[C@@H]1O[C@H](CO)[C@@H](O)[C@H](O)[C@H]1O [Leu-Glc, N-(L-leucyl)-β-D-glucopyranosylamine]",4-19 times,2-19 times
"CC[C@H](C)[C@H](N)C(=O)N[C@@H]1O[C@H](CO)[C@@H](O)[C@H](O)[C@H]1O [Ile-Glc, N-(L-isoleucyl)-β-D-glucopyranosylamine]",4-19 times,2-19 times
